Measured values reported in patent US20020150567A1 (University of California, published 2002).
Results are given in words; binding and its absence hold for the method and conditions named.

Sequences of proteins named here, by UniProt entry; tags and fusion partners are left off. A change or cut given only in a name is not applied to a line headed by its entry.
UniProt P15498: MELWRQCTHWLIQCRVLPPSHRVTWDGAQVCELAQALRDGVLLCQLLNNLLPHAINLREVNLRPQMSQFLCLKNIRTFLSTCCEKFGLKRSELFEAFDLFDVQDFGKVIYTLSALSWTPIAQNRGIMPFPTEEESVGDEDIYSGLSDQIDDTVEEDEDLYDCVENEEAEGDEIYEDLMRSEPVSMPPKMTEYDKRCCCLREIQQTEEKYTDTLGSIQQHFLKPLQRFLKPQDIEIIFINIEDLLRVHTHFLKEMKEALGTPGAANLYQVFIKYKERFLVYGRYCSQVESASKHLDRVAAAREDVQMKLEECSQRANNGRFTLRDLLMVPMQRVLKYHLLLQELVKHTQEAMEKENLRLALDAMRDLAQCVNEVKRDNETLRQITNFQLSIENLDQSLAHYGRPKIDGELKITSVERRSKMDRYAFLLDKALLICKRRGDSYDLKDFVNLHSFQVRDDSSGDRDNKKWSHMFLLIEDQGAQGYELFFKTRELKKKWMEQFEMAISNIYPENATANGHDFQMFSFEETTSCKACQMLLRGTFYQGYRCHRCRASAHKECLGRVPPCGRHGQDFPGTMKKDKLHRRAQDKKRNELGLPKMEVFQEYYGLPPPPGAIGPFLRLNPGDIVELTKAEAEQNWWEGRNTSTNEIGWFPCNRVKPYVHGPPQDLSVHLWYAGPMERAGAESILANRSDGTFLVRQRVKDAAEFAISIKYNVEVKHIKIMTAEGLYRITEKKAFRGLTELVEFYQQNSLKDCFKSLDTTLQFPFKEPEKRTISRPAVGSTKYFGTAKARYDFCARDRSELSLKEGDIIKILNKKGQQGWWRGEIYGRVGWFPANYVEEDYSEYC

Target: GST [GST: P08515]
Assay: Far-Western blot with radioactively labeled probe

- binding: no binding
Substance: Vav SH3-SH2-SH3 domains (amino acids 648-844) (from UniProt P15498)
